In publication PMC13053990 one finds binding data, which are given here for two molecules.

Assay [1] deals with EGFP-miPEP8 (Enhanced Green Fluorescent Protein-miPEP8) fused protein (Drosophila melanogaster). Briefly: co-IP; S2 cells co-transfected with EGFP, EGFP-miPEP8 or EGFP-miPEP8 SLiMmt and a HA-tagged candidate; GFP-Trap agarose beads; Western blot with anti-HA and anti-GFP.
Assay [2] has as its target EGFP-miPEP8 SLiMmt (mutated SLiM MOD_Plk1/MOD_Plk4) (Drosophila melanogaster). Described as above.

No constants are given. Whether binding was seen depends on the method and setting. In cells and extracts the contact can be indirect. Binding can be weak; no strength is given. Where a sequence is shown, tags or fusion partners need not be part of it.

B1: PI3K92 E fused with a HA tag (protein, UniProt P91634 1-1088)
chain: MNMMDNRALAYVAHQPKYETPPEEAEPPCMRFSVNLWKNEMLNWVDLICLLPNGFLLELRVNPANTIQVIKVEMVNQAKQMPLGYVIKEACEYQVYGISTFNIEPYTDETKRLSEVQPYFGILSLGERTDTTSFSSDYELTKMVNGMIGTTFDHNRTHGSPEIDDFRLYMTQTCDNIELERSAYTWQQRLLYEHPLRLANSTKMPELIRERHPTRTFLIVVKNENDQSTFTLSVNEQDTPFSLTESTLQKMNRSQMKMNDRTSDYILKVSGRDEYLLGDYPLIQFLYIQEMLSDSAVPNVVLQSVYRLESYINHHNEQAMVTKRPLPKKRTVHLHKSISSLWDMGNYFQLTLHSISNVNFDKTRALKVGVHVCLYHGDKKLCAQRSTDSPNGNFDTFLFNDLVMDFDIQMRNLPRMTRLCIVIFEVTKMSRSKKSSNNKDIALKDVPYNKNPLAWVNTTIFDHKDILRTGRHTLYTWTYADDIQSVEVFHPLGTIEPNPRKEECALVDLTFLSSGTGTVRYPSEEVVLQYAADREQVNRLQRQLAGPEKPIKELKELMANYTGLDKIYEMVDQDRNAIWERRNDILRELPEELSILLHCVYWKERDDVADMWYLLKQWPLISIERSLELLDYAYPDPAVRRFAIRCLHFLKDEDLLLYLLQLVQAIKHESYLESDLVVFLLERALRNQRIGHYFFWHLRSEMQTPSMQTRFGLLLEVYLKGCKHHVAPLRKQLHVLEKLKQGSLIAKKGSKEKVKTMLQDFLRDQRNSAVFQNIQNPLNPSFRCSGVTPDRCKVMDSKMRPLWVVFENADVNASDVHIIFKNGDDLRQDMLTLQMLRVMDQLWKRDGMDFRMNIYNCISMEKSLGMIEVVRHAETIANIQKEKGMFSATSPFKKGSLLSWLKEHNKPADKLNKAINEFTLSCAGYCVATYVLGVADRHSDNIMVKRNGQLFHIDFGHILGHFKEKLGVRRERVPFVLTHDFVYVINKGFNDRESKEFCHFQELCERAFLVLRKHGCLILSLFSMMISTGLPELSSEKDLDYLRETLVLDYTEEKAREHFRAKFSEALANSWKTSLNWASHNFSKNNKQ
With B1, in assay [1], the binding entry is on record as “binds”.

B2: ref(2)P-HA (protein, UniProt P14199 1-599)
chain: MPEKLLKITYQGAGPQKKINAYLRMPSQNYTILRREIELYLFQERQLPKCDVRTFWIDADKDEIEIVNQNDYEIFLAKCESNMHVQVAPLAPVEEPKATKQEGSSANAEAPSVDDPSNFTIHDAVECDGCGLAPLIGFRYKCVQCSNYDLCQKCELAHKHPEHLMLRMPTNNGPGMVDAWFTGPGLGRRSGRRSRGHCPFQETNQADPAGEPARDSRRERRQARRHAGVLTQFVEMMTNLPLNTTTATAPAEPQKPKAAEQTESPPQAEPTVTAEKAAESEAKPTEPKKVNTDQSVPRTEDPVTTPRSTQPTTPVINLDNISQIVPPEYMSAGIEILNNFSEMFSKIIDTTEGGDSGIFAPSTTPSAENKKPEEQGQSSGQSGASSANQSAVPSAAPSANQSNVPSANQSATPSISGSIPDAQLETEPLNPKPSETTTETEQERRRSDSLDPEWQLIDNAYSANNSNLINLDTTNPTAAPQEPVRDFGQLGELLRQHMNEEARVEQASANTQTAQVDTVSTSTSTTSVTTNSVGTSPAAPDDKRTVPVYHTDESINKSIHAMMAMGFSNEGAWLTQLLESVQGNISAALDVMNVSQNRN
As to B2, the binding entry in assay [1] and in assay [2] was “binds” throughout.
